Measurements as given in the supplement of paper PMC5949888.
Most values lie at the floor of the assay. Slopes are relative: functional sequences can read slightly below zero.

Tested on: Saccharomyces cerevisiae PS128 hsf1 delta, HSF1(1-493) fusion
Assay: growth estimate (transactivation domain function in HSF1 fusion, heat-shock survival) (a.u. (slope of normalised read count over time)); higher = stronger growth at 37°C, i.e. more transactivation activity
Conditions: library: random library

Row | Substance | growth estimate
1 | SVPYPDIEKARQGWHYSHSR | < -0.25
2 | IASGPRVGRAPLGSIVGPRP | < -0.25
3 | SYSHKVLLRYR | < -0.25
4 | PRPRNGANQLKGMKSVVL | -0.245
5 | DLIMGVCMYRQPEFNPSINI | < -0.25
6 | GAENGQGRLWCFAFGVRIEL | < -0.25
7 | LPLRSADRFKTSMTEREVLT | 0.146
8 | SAPVSILARKPRVGVGWFRR | < -0.25
9 | ADLSGRTYPLTVFS | < -0.25
10 | CYDLLQT | < -0.25
11 | ALRLSRCAL | < -0.25
12 | VVNLDD | < -0.25
13 | DLVGVSRIGGGPPWR | < -0.25
14 | RGPPCVGYLVKAS | < -0.25
15 | SRLIIRRDYQSALT | < -0.25
16 | SLVSFCCSCSRSRVLGNLGT | < -0.25
17 | TFIGPA | < -0.25
18 | FRSAVESTGRITLASRCGWR | < -0.25
19 | FGVVSRQEGPTRIECIG | -0.241
20 | RVSYGGSLKWKLSVC | < -0.25
21 | PTARI | < -0.25
22 | PACDMPATSNLVCFIATVVR | < -0.25
23 | ADSS | < -0.25
24 | LPETK | < -0.25

Row | Substance | growth estimate
25 | QQYSRYSNRWAR | < -0.25
26 | HTSLDSYAKPFSLFIRRAFP | < -0.25
27 | TGRCNRPKSLDREFHSQC | < -0.25
28 | FLRR | < -0.25
29 | LLLPLDSF | -0.228
30 | ILSWWDNSWMTSHRGL | < -0.25
31 | ANHSSAGGDRGSAFMGTVHD | < -0.25
32 | WSVRQRLSVLRVSPKDLMG | < -0.25
33 | RLHRGLMGVDRTRFPPVVRG | < -0.25
34 | TIKRRSESACRLIDAG | < -0.25
35 | RGLQCFFQLIAQPGWVLKPR | < -0.25
36 | PKCGVKAAEGGF | < -0.25
37 | GSRDAAGWKCGVGFKTVSLG | < -0.25
38 | PCP | < -0.25
39 | RRGLD | < -0.25
40 | CVMHLYRGMLDGRRIRMYMP | < -0.25
41 | LESYS | < -0.25
42 | NCALTGRKLRGIRGALRWPV | < -0.25
43 | NRGFLRITLVSDVISPPG | < -0.25
44 | EDKART | < -0.25
45 | VPSCLSRLNHPSCGGA | < -0.25
46 | MEEGGALHVRTTTWK | < -0.25
47 | MYHGVGSLASLPGVDGGSMT | < -0.25
48 | PCRHRFLDGSASRDLPEISA | < -0.25

Row | Substance | growth estimate
49 | CESGRNSSKMWLLGPLMLTD | < -0.25
50 | YGVYSGSRSSNR | < -0.25
51 | AAMCLQSAFRDQYAVESCLS | < -0.25
52 | PEGPRWHLSDFQGA | < -0.25
53 | PYD | < -0.25
54 | TCRQPGGHTLALPPVDFCQV | < -0.25
55 | KQRDNPTER | < -0.25
56 | TVVLCLGNELPG | < -0.25
57 | LHRRLDCRLAAGHRSAGW | < -0.25
58 | SSYRNDRGAGPRQGQRYIGH | < -0.25
59 | SAMSLPRLQGDTPPWPRVAN | < -0.25
60 | FGGFEVDIL | < -0.25
61 | AVDIGLERCGYPYKIAAIDN | < -0.25
62 | SPMFY | < -0.25
63 | GSDDRCAY | < -0.25
64 | SWHLSAKSGDRVLRAWDTRS | < -0.25
65 | PDDSALQRVVPKTMVQQRQR | < -0.25
66 | TVSPSIQIFKA | < -0.25
67 | AQKATNKLE | < -0.25
68 | AKGTGRAVDMEIGLGSHCLV | < -0.25
69 | GHVHAAAVAREGPQHNLPYP | < -0.25
70 | GSPWGRDRPRGSLELHTTTS | < -0.25
71 | PVLRDKWPGPLCVKSLSG | < -0.25
72 | GSYQKVVNCMAL | < -0.25

Three entries drawn at random from those above, as already listed:
Row | Substance | growth estimate
65 | PDDSALQRVVPKTMVQQRQR | < -0.25
66 | TVSPSIQIFKA | < -0.25
55 | KQRDNPTER | < -0.25
